Data taken from publication PMC8271163.

The chains behind the UniProt entries cited, without tags or fusion partners.
UniProt P60322: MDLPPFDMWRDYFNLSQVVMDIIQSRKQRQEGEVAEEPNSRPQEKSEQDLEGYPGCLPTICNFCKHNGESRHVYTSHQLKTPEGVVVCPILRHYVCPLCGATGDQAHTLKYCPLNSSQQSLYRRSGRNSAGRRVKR
UniProt Q80U58: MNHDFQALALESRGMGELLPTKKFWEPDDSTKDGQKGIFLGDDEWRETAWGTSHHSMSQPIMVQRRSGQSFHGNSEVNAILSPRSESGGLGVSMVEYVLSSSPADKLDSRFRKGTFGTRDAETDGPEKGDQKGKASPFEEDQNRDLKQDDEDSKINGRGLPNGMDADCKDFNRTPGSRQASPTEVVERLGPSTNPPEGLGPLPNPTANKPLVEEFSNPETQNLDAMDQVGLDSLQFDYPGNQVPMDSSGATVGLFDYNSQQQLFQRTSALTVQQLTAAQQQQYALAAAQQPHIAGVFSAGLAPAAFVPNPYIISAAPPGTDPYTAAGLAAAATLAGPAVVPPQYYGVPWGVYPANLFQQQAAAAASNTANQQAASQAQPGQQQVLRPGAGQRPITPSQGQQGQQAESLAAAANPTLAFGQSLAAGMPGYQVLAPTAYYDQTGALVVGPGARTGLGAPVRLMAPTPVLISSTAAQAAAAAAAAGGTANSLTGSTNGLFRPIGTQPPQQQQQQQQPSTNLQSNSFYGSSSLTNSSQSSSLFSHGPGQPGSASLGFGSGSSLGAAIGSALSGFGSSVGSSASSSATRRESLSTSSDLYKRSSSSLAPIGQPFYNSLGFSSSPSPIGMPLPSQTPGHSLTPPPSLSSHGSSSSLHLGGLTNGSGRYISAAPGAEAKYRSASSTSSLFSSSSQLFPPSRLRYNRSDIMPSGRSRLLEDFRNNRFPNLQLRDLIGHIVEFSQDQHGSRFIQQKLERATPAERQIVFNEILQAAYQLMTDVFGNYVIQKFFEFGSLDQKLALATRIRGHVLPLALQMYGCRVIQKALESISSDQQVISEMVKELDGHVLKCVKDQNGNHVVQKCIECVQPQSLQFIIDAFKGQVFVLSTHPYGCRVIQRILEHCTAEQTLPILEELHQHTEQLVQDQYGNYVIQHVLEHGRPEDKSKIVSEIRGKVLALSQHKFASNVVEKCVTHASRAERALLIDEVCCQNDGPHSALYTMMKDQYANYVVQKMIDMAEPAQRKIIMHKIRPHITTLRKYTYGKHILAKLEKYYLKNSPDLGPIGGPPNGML
UniProt Q80U78: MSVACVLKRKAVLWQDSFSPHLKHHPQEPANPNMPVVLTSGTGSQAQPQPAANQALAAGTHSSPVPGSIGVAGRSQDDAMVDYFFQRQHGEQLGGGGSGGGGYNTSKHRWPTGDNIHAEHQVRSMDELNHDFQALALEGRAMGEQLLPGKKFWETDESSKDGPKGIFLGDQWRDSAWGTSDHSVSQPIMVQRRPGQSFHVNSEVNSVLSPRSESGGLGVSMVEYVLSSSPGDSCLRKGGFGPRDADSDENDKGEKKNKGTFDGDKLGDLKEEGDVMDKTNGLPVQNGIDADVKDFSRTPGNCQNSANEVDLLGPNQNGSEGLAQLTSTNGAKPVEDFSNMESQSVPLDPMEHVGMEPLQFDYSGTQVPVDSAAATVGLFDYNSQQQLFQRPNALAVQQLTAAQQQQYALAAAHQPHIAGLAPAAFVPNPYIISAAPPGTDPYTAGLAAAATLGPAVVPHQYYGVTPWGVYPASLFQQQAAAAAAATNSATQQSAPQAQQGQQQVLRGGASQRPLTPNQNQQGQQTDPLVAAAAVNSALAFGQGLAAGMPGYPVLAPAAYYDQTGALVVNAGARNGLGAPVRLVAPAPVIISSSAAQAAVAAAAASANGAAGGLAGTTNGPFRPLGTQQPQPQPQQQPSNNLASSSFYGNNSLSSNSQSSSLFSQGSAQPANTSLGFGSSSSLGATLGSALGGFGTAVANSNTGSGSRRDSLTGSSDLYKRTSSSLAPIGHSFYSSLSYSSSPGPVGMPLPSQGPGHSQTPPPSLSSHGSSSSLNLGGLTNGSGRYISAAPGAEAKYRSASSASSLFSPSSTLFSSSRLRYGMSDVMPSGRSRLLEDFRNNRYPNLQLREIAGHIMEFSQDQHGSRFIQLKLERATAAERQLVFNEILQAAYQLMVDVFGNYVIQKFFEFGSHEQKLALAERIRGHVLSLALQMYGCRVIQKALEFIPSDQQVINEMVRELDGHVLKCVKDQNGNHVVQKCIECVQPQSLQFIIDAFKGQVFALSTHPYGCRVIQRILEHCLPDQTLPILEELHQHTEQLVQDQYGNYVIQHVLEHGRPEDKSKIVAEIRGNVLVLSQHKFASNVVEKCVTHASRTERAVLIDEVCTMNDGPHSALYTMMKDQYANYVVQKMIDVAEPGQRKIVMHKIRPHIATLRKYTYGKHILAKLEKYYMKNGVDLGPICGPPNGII

Target: TAG-NANOS2 (N-terminal tagged NANOS2 protein) (mouse) (UniProt P60322)
Test: affinity purification with mass spectrometry; TAG-NANOS2 immunoprecipitated with anti-GFP antibody cross-linked to Protein G magnetic beads from Nanos2^TAG/TAG against Nanos2^CTL SSC lines; IP without RNase; three replicates; label-free quantitation; hits at greater than four times enrichment and p value < 0.05

binding	Substance
no binding	PUM2 (from UniProt Q80U58 1-1066)
no binding	PUM1 (from UniProt Q80U78 1-1189)

These are yes or no findings as the source states them, for the method shown. Binding seen in cells or lysates may run through a third protein. A yes stands for co-enrichment or nearness to the bait. Other partners may have been found. A no says only that the protein was not detected with the bait.
